Where a chain is given by its changes, count along the chain named. No constants are given. Whether binding was seen depends on the method and setting. In cells and extracts the contact can be indirect. Binding can be weak; no strength is given. Where a sequence is shown, tags or fusion partners need not be part of it.
Legend:
[1] = molecular target: T1, α-COP variant D243G (α-COP-FLAG), stably expressed in MEFs (mouse) (UniProt Q8CIE6); experiment: co-IP
T1 sequence: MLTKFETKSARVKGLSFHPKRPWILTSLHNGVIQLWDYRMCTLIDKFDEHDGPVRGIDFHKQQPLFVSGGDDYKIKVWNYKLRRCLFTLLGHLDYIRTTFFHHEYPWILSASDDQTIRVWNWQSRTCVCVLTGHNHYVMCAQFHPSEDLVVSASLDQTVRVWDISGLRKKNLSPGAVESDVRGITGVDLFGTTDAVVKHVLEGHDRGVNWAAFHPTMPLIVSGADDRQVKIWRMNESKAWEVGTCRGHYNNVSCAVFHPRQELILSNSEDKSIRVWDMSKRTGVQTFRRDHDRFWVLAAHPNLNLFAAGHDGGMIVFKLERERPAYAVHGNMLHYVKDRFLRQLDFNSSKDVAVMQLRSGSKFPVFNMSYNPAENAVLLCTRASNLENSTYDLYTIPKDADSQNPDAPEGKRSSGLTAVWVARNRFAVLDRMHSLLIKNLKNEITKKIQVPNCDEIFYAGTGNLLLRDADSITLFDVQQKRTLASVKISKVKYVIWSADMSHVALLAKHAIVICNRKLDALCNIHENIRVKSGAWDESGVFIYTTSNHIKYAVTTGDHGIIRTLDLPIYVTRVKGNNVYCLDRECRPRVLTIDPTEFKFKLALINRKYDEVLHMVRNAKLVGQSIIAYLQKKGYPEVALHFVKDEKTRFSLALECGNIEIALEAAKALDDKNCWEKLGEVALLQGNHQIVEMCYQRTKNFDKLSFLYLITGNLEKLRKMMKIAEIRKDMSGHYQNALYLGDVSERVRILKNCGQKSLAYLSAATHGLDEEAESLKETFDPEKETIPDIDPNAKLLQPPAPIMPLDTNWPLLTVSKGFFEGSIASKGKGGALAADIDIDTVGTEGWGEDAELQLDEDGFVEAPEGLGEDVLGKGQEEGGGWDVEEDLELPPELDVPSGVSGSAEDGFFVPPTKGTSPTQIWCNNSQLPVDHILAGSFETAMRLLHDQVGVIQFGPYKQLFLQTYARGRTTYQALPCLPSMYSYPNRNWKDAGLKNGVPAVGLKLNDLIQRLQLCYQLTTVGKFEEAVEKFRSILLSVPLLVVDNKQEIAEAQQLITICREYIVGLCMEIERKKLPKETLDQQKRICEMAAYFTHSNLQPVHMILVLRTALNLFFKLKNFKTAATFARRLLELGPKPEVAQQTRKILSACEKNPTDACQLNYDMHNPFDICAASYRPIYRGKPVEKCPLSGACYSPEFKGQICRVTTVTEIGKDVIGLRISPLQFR

[2] = molecular target: T2, α-COP variant R233H (α-COP-FLAG), stably expressed in MEFs (mouse) (UniProt Q8CIE6); experiment: co-IP
T2 sequence: T1 sequence with R233H, G243D

binding [1]: binds
binding [2]: binds
Substance: EGFP-mouse STING, stably expressed in MEFs

From article doi:10.1101/2020.05.20.107664
